PubChem BioAssay AID720505, Drosophila RNAi Screening Center, 2013

Purpose: 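Knock-downs that reduce calcium influx once internal stores are emptied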 (primary screen)
Cells: Drosophila S2R+ cells
Reagent: long dsRNA against Drosophila genes
Treatment: thapsigargin (2 µM) in calcium-free buffer to empty internal stores, then 2 mM calcium added back
Detection: 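Stores emptied by 2 µM thapsigargin without calcium, then 2 mM calcium re-added; fluo-4 fluorescence followed by FLIPR in 384-well plates, per-well averaged endpoint, raw; two screen passes, some wells retested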
Reading the numbers: calcium signal and retest calcium signal: higher = more calcium entry after store depletion
Rule for the call: 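About 1500 genes called as lowering calcium entry, by varying amounts, judged against per-plate control wells with STIM1 as positive and Rho1 as negative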
Meaning of the calls: active = called as lowering calcium entry; inactive = not called
The screen tested about 20,000 reagents; shown is a random part of those that have a named target and a result. Over the whole deposit, about 2,100 (10%) got an active call. 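Raw plate signals without normalisation; calls rest on control-based scores that were not deposited; replicate 2 separates called from uncalled poorly.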 The record does not give: the amount of reagent, the time to read-out.

Against Eig71Eg [DRSC11154] the deposit lists calcium signal, replicate 1 = 89.5; calcium signal, replicate 2 = 128; inactive. Jupiter [DRSC15204] showed calcium signal, replicate 1 = 94.9; calcium signal, replicate 2 = 141; inactive. Against Jupiter [DRSC15205], the values are calcium signal, replicate 1 = 151; calcium signal, replicate 2 = 106; inactive. After knock-down of Jupiter [DRSC15389], the record shows calcium signal, replicate 1 = 166; calcium signal, replicate 2 = 115; inactive. Spn38F [DRSC03616] scored calcium signal, replicate 1 = 156; calcium signal, replicate 2 = 104; inactive. Against CG5290 [DRSC10501] the deposit lists calcium signal, replicate 1 = 136; calcium signal, replicate 2 = 110; inactive.

For ND-15 [DRSC00311], the values are calcium signal, replicate 1 = 74.8; calcium signal, replicate 2 = 119; inactive. After knock-down of link [DRSC06368] the results were calcium signal, replicate 1 = 102; calcium signal, replicate 2 = 150; inactive. PrBP [DRSC03189] showed calcium signal, replicate 1 = 204; calcium signal, replicate 2 = 145; inactive. Against wdn [DRSC17095], the values are calcium signal, replicate 1 = 102; calcium signal, replicate 2 = 181; inactive. Depletion of CG12384 [DRSC06145] resulted in: calcium signal, replicate 1 = 124; calcium signal, replicate 2 = 120; retest calcium signal, replicate 1 = 106; retest calcium signal, replicate 2 = 116; inactive. Silencing of mRpL45 [DRSC16146] resulted in: calcium signal, replicate 1 = 166; calcium signal, replicate 2 = 126; inactive.

SCaMC [DRSC10293] showed calcium signal, replicate 1 = 112; calcium signal, replicate 2 = 85.3; inactive. Knock-down of SCaMC [DRSC10415] resulted in: calcium signal, replicate 1 = 118; calcium signal, replicate 2 = 82.9; inactive. Against Nepl16 [DRSC14650], the values are calcium signal, replicate 1 = 260; calcium signal, replicate 2 = 184; inactive. alpha-Man-IIa [DRSC15393] gave calcium signal, replicate 1 = 104; calcium signal, replicate 2 = 94.1; inactive. CG2854 [DRSC18595] showed calcium signal, replicate 1 = 58.6; calcium signal, replicate 2 = 103; active. With knock-down of Myt1 [DRSC11228] the results were calcium signal, replicate 1 = 76.3; calcium signal, replicate 2 = 86.8; inactive.

CG7126 [DRSC16201] showed calcium signal, replicate 1 = 158; calcium signal, replicate 2 = 149; inactive.

Active calls, among the entries above:
CG2854 [DRSC18595]: calcium signal, replicate 1 = 58.6; calcium signal, replicate 2 = 103; Call = active

Continued.
Akt [DRSC14108] scored calcium signal, replicate 1 = 148; calcium signal, replicate 2 = 186; inactive. For CG1354 [DRSC17902], the values are calcium signal, replicate 1 = 120; calcium signal, replicate 2 = 87.1; inactive. Nnp-1 [DRSC02165] scored calcium signal, replicate 1 = 78.4; calcium signal, replicate 2 = 75; active. For mh [DRSC20168] the deposit lists calcium signal, replicate 1 = 68.9; calcium signal, replicate 2 = 135; active. Silencing of loco [DRSC15202] gave: calcium signal, replicate 1 = 150; calcium signal, replicate 2 = 115; inactive. With knock-down of loco [DRSC16989], the record shows calcium signal, replicate 1 = 237; calcium signal, replicate 2 = 243; inactive.

For CG15465 [DRSC18048] the deposit lists calcium signal, replicate 1 = 66.7; calcium signal, replicate 2 = 239; active. Against hop [DRSC20340], the values are calcium signal, replicate 1 = 100; calcium signal, replicate 2 = 109; inactive. hop [DRSC23334] showed calcium signal, replicate 1 = 106; calcium signal, replicate 2 = 144; inactive. With knock-down of tx [DRSC16931], the screen gave calcium signal, replicate 1 = 111; calcium signal, replicate 2 = 103; inactive. Knock-down of CG14947 [DRSC02429] gave: calcium signal, replicate 1 = 99.1; calcium signal, replicate 2 = 157; inactive. After knock-down of CG31735 [DRSC01518] the results were calcium signal, replicate 1 = 189; calcium signal, replicate 2 = 127; inactive.

Depletion of CG14424 [DRSC18472] resulted in: calcium signal, replicate 1 = 108; calcium signal, replicate 2 = 139; inactive. Against CG14448 [DRSC11705] the deposit lists calcium signal, replicate 1 = 78.3; calcium signal, replicate 2 = 173; inactive. After knock-down of CG4962 [DRSC10464], the screen gave calcium signal, replicate 1 = 109; calcium signal, replicate 2 = 163; inactive. Silencing of Scp2 [DRSC16854] came out at: calcium signal, replicate 1 = 87.3; calcium signal, replicate 2 = 66.8; inactive.
